This passage reports binding results from article PMC7870818, “SPRTN protease-cleaved MRE11 decreases DNA repair and radiosensitises cancer cells”.

Numbering of substitutions follows the chain as printed. Results are given in words; binding and its absence hold for the method and conditions named. In cells and extracts the contact can be indirect. Some results given as binding are weak or reduced against the parent protein; the word gives no strength. Sequences can lack the tags named with a protein.

The target of one test is T1, flag-SPRTN WT (UniProt Q9H040).
T1 sequence: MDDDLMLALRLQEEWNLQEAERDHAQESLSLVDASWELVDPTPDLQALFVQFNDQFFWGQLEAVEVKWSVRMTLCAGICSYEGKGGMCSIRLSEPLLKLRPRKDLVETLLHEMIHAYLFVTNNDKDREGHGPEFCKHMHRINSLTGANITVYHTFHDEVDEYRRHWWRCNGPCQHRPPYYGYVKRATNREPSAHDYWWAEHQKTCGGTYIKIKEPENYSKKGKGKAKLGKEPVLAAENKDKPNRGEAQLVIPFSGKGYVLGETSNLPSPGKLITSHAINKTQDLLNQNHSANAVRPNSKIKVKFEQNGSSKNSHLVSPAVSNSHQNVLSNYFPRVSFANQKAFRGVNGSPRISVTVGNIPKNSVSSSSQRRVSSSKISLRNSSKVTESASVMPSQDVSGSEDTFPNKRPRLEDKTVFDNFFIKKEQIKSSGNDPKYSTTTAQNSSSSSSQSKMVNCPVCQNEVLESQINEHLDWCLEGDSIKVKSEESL
Put plainly: co-IP; 293T cells transfected with flag-SPRTN WT or E112A; whole cell lysate in 50 mM Tris-HCl pH 7.4, 150 mM NaCl, 0.1% NP-40, 1 mM EDTA, 5% glycerol with 500 U/ml benzonase at 4 C; anti-flag M2 antibody, five washes, elution with 3xFlag peptide; blots for p97 and MRE11.

The next test has as its target T2, flag-SPRTN E112A (UniProt Q9H040).
T2 sequence: T1 sequence with E112A
Described as above.

As to p97 (from UniProt P55072 1-806), the binding result in the test with flag-SPRTN WT and with flag-SPRTN E112A was “binds” throughout.
